Drawing on paper PMC6814788, this text covers binding for one substance.

Protein sequences, listed by entry. Tags and fused reporters are not part of them.
UniProt P49792: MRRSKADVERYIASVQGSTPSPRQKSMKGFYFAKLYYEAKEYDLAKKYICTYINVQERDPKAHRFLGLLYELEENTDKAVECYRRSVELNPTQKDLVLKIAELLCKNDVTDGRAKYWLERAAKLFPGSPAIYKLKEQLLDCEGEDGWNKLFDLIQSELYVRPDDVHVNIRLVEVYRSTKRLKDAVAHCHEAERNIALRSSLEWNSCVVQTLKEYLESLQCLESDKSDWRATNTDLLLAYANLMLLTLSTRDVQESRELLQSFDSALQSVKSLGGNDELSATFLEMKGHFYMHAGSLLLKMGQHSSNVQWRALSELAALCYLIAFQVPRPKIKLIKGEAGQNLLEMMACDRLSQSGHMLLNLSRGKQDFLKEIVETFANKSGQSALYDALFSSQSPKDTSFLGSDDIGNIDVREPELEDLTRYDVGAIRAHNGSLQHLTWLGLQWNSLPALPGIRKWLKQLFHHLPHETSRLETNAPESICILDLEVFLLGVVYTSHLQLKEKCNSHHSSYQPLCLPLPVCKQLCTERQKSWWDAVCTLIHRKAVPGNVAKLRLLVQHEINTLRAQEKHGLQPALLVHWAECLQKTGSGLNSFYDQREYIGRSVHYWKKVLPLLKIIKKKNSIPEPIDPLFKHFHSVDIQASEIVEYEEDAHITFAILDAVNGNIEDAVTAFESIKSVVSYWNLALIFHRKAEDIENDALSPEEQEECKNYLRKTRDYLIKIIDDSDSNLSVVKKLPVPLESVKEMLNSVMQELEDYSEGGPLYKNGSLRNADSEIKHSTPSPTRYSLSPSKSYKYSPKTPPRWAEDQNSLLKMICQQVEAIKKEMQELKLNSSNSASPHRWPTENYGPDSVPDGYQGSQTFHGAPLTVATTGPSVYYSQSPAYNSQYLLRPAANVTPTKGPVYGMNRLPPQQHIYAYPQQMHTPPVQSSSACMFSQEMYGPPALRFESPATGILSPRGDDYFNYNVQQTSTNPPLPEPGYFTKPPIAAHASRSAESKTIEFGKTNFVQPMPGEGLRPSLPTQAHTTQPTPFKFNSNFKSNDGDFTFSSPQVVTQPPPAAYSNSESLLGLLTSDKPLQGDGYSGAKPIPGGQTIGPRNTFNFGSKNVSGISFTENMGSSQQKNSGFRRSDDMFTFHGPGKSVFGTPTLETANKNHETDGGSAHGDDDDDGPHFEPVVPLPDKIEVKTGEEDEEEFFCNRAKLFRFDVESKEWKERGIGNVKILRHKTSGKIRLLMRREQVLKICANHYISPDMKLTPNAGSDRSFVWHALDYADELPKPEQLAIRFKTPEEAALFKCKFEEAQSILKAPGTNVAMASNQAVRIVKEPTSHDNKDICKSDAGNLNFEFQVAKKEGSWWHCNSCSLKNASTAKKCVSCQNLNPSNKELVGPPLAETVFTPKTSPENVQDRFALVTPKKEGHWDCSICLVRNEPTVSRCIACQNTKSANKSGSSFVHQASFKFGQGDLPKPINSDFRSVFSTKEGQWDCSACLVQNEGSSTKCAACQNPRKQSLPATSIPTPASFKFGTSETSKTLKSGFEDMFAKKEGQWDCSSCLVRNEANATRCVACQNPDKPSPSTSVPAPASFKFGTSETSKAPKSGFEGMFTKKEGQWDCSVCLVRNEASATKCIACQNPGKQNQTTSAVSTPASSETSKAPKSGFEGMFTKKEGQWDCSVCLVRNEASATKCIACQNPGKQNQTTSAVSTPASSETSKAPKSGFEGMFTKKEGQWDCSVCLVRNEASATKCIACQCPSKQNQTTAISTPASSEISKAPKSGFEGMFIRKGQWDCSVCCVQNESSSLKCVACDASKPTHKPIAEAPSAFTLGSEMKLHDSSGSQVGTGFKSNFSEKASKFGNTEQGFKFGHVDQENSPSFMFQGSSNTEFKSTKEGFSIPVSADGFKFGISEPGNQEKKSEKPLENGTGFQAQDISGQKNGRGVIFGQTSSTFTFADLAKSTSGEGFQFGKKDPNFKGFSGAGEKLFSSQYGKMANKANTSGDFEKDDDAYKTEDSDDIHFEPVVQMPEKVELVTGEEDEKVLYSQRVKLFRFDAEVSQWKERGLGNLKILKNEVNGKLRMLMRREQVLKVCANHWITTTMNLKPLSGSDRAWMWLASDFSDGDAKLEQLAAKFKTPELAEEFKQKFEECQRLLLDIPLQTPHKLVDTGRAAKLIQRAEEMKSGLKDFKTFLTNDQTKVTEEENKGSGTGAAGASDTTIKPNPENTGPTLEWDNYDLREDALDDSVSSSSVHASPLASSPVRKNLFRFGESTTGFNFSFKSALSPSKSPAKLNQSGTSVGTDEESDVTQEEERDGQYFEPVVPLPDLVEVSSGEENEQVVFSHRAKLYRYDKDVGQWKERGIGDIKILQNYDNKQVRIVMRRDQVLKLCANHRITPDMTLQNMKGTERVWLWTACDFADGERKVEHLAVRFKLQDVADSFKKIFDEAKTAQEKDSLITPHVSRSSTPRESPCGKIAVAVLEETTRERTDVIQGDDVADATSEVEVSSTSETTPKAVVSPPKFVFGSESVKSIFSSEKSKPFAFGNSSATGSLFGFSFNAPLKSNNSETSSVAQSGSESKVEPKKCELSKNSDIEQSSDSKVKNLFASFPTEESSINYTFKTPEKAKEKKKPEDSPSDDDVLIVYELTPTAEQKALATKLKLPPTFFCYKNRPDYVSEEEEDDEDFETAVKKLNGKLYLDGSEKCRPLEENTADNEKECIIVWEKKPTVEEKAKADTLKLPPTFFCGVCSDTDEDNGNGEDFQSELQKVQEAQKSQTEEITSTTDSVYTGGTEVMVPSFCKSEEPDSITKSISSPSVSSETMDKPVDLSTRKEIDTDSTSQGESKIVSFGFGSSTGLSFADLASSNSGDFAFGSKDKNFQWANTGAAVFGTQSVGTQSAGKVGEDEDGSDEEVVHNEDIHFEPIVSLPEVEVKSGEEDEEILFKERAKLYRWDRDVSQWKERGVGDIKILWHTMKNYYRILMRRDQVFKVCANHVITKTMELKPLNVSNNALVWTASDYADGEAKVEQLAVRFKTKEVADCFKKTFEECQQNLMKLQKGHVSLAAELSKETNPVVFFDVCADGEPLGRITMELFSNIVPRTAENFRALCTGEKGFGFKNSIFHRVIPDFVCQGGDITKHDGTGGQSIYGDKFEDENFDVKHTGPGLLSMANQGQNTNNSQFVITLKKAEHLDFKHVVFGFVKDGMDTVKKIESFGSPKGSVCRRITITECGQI

For the assay, the target named is Thioredoxin-related transmembrane protein 2 (TMX2), endogenous (human (endogenous in HEK293)) (UniProt Q9Y320). The assay is described as follows: affinity purification with mass spectrometry; HEK293 cell lysates immunoprecipitated with anti-TMX2 antibody (endogenous TMX2), SDS-PAGE, silver staining, bands analysed by LC-MS.

No constants are given. Whether binding was seen depends on the method and setting. Binding seen in cells or lysates may run through a third protein. A yes stands for co-enrichment or nearness to the bait. Other partners may have been found.

Turning to “RanBP2, endogenous (from UniProt P49792 1-3224)”, the binding entry is “binds”.
